The text below walks through data of PubChem BioAssay AID1508600 (Functional Genomics Laboratory (NCATS/FGL), 2020).

Out of some 53,000 sequences screened, about 3,700 (7%) were called active.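 The calls were made as follows: active = gene knockdowns whose robust z-score for IL-1 alpha signal is at least 2 or at most -2, so actives lie on both sides; inactive = the rest.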 The list shows a part of the results.

The test in a line: Components of the Cytosolic LPS Sensing Pathway: Gene Identification via Genome-wide siRNA Screen.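 Also: robust z of the log signal after scaling to non-targeting control siRNA wells of the plate.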 The conditions noted are these: RAW264.7 macrophages, IL-1a HTRF, actives lie on both sides, screened at 100 nM (by protocol), cells primed 5 h with Pam3CSK4 first. An outline of the steps:
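RAW264.7; siRNA 100 nM final, RNAiMAX, 48h 37 degrees C; Pam3CSK4 5 h; LipidA + TransIT-TKO 24 h; IL-1a HTRF; CellTiter-Glo viability; robust z vs negative-control median.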
For orientation: TR-FRET usually uses a lanthanide donor and a delayed reading to cut background.
On to GGUGGUAUCUGUAUUCUAUTT against Olfr1106, for which the z-score was active: 2.6. In the case of GCAGAAAGCAACACGCCCUTT against Pramel20, the z-score is inactive: 0.631. For the sequence GGAAAAGCAUCUUCUCUUUTT against Rnf141, the z-score was inactive: 0.0772. GACAUUUCGACCUUCCAGUTT against Coq2: the z-score was inactive: 1.63. Turning to “GGUUCAAAUAUCACAUUGATT against B230206H07Rik”, the z-score is inactive: 1.39.

For the sequence GGUCGUGAUAUUAUUGGGUTT against Ddx47, the z-score is active: 2.91. GCUGGAUGGCCGUUUCAAATT against Fancd2os: the z-score was inactive: -0.00925. For GGAAGCAGAGAAAAUGUUCTT against Snrpa1, the z-score was inactive: -1.9. With GCUUUAUCAUGAGCUCCACTT against Zfp629, the z-score was inactive: 0.757. In the case of GCCAAAAUCAAGAUUUGCUTT against Angptl3, the z-score is inactive: -0.296. On to GGUAAACGAUCCAGAUGCATT against Tmem220, for which the z-score was inactive: 0.0291. Regarding CCAAGUGAUCUACAGUGAUTT against Mrc2, the z-score is inactive: 0.00997. The same measure for UGGCCACGACCCUGAACUUTT against Ghrhr: inactive: 0.56; for GGCCAAAAUGGUGUUGUUCTT against Oas1c: inactive: 1.1; for GGCUUACAUACAUACUAUGTT against Ddx3y: inactive: 0.886.

Consider GCCAUGUGCUGGAAAACUCTT against Cfp, for which the z-score is inactive: -0.14.

For the sequence GGAGAACUUCAACAAUGUCTT against Tesc, the z-score is inactive: 0.46. For GCUGUCUAUUUCCUAUACUTT against Bcl7a, the z-score was inactive: 0.171.

As for GGCGUGUAUCUAUACACACTT against Glp1r, the z-score is active: 3.1. The same measure for GGUUUUACUCCUUUAAUGUTT against Cbfa2t3: inactive: 0.193; for GGACUUAUGGUUUUUCCCATT against Atp1b3: inactive: -1.38; for GGAAGAUAAACCUAUCAUCTT against Phlda3: inactive: 0.477. In the case of GGCAAUGUGUCUUUGAUCATT against Lamc2, the z-score was inactive: -0.757. Take GGACCAUCACUUCCAGCUATT against Rab1b: the z-score is inactive: -0.726. On to GGCAUUUAAAACUCAUUGUTT against G6pdx, for which the z-score is inactive: -1.47. The same measure for CGCAAUUCAGGUACCAAAUTT against Ndufv1: inactive: -0.0623; for GGUUCAGUUUGGAAAUGAATT against Rbm26: inactive: 0.809. With GCAGUGCAUAACAUUGCCATT against Marcks, the z-score is inactive: -1.38. As to GGAGAACAACCUUCUCAUATT against Cog7, the z-score was inactive: -0.398.

With GGACAAAUGAACAUGCUGATT against Edn2, the z-score was active: -2.26. Take CCUGUAUAGAGGUGGGAAGTT against Tk2: the z-score was inactive: 1.74.

GGAAGCGUAUUUUGGUGAUTT against Cox10: the z-score is inactive: 0.642. The same measure for GGAAUUUAGAAGGAUUAGGTT against Ptp4a1: inactive: 1.13; for GGAGUUUGAUGCAAAUUUUTT against Prl3a1: inactive: 0.798.

GCGAUACCGUGCCAUGUUUTT against Dohh: the z-score is inactive: -1.21. On to GGAGCAGAUUCUUCAAUAUTT against Atp11a, for which the z-score was inactive: 0.294. As to GGUAUGUCUAAGAAAACCATT against Pi4ka, the z-score was inactive: 0.173. GGAGGUCCCUUCUUCAGCUTT against Zfp410: the z-score is inactive: -1.19.

As to GGAACCCAUCAGCUACAUGTT against Spaca4, the z-score is inactive: -0.723. As to GCCAAGGGUUUGAAAGCCATT against Tpm1, the z-score is inactive: -0.949. Regarding GGUGUUGAACAAGUGCGACTT against Tescl, the z-score is inactive: -0.987. Take GCAUCUCGUGUGACUUAAGTT against Ak1: the z-score was inactive: -0.642. The same measure for GGAUACUCUCGAACUCGAUTT against Cstdc2: inactive: -0.197; for GGAUGACUGUCUUCCAUCGTT against Hrg: inactive: -1.11.

For GGCACCUUCAAAUUACAUCTT against Asl, the z-score was inactive: -0.376. With GGGUGGACUGAAUGCUGAUTT against Qtrt1, the z-score was inactive: 0.665. As to CCCAGUAACUAGUUUGUAATT against Tbc1d2, the z-score is inactive: -0.629.

With GGGAUUCGGGUUCGUAACUTT against Rbfox2, the z-score was inactive: -0.983.

Turning to CGUUCUUGAGAGUCGAUCATT against Smoc2, the z-score was inactive: -0.19.

Consider CGAUUACUACAUUACAUCATT against Efnb1, for which the z-score was inactive: 1.2. The same measure for GGUGAUCAGUGCCUACAGATT against Ppp1r37: inactive: 0.244. For the sequence CAUCUUUCAUCAAAUAACUTT against Krtap31-2, the z-score was active: 2.49. As for CCGUCGUACUUGUUCUCCUTT against Otog, the z-score is inactive: -0.387. The same measure for GCCAUUCAAUGAUACAAUGTT against Adamts19: inactive: 0.684; for GGUGUUUACAACCUCACAATT against Pecr: inactive: 0.105. Regarding GGGUCUUGUGAUCUCAAUUTT against Cyp2a5, the z-score was inactive: -0.785. In the case of GGUGUCAAGUGGAUUAUCCTT against Slc12a8, the z-score was inactive: -1.5.

Take GGAAUGUUAACAAAGAGCATT against Sgcb: the z-score is inactive: 0.8. Take GGGACACUCCACCUUUCAUTT against Notch4: the z-score is inactive: -0.637. GCACCGGUGAAAAAGAAGATT against Pinx1: the z-score was inactive: -0.607. In the case of GGAAUCGUUCCGUAGUGACTT against Olfr959, the z-score was inactive: -0.0954. Take GGAGAAAGAAGCUAGUGAGTT against Gm6787: the z-score was active: -2.77.

GGGUUCCUAUGGCAAUGGGTT against Adprhl2: the z-score was inactive: -1.18.

As for CGAACUGUCAUACAGAUUCTT against Gadd45b, the z-score is inactive: 0.475. As for GCAUGUGUCAAGAUGUCUGTT against Tec, the z-score is inactive: 1.36.

Turning to CCACAUGCCAAAAUAAUACTT against Oxr1, the z-score is inactive: -0.771. As for GGUGAGAAGGUGCUAGUGUTT against Ugt1a5, the z-score is inactive: 0.679. The same measure for GGAUCAGUUCAACGGACAGTT against Oas1d: inactive: 0.741. Consider GGAUUUGUUGACAAGAACATT against Myo1b, for which the z-score is inactive: 1.26. The same measure for GGCUGGUUGGAAGGAAAAUTT against Ints6l: active: 2.1; for GGAAAUCUUUGAGAACUAUTT against Tpr: inactive: -0.0193. Take GGGAUCAUUGCUGUCCUCUTT against Adora2b: the z-score was inactive: -1.33. In the case of GGCCUACGAACAGGUCAUGTT against Foxa2, the z-score is inactive: 0.0835. GGGCCUCUAUCAACACUGUTT against Tomm40l: the z-score is inactive: 0.951.

On to GCAAGAACUGAAUCUAGUGTT against Tepsin, for which the z-score is inactive: 0.785. For the sequence GCGACACAGAUUCAGAGAATT against Tmem178b, the z-score is inactive: 0.33. The same measure for CCAUUCUUGCCUUUGUGCUTT against Cep55: inactive: -1.63; for GGGCUCAUGAACUAAAAUUTT against C2cd2: inactive: 0.821; for GGCUGCAUGAUUUAUAGAGTT against Il18: inactive: 1. The same measure for GGCACGUAUGUGGUAGACATT against Zdhhc7: inactive: -1.08; for CGUGCAACAAGACAUCUAATT against Wnt4: inactive: -0.452.

Regarding GGAAUUUGGAAUGGCUACUTT against Hmcn2, the z-score is inactive: -0.126. For the sequence GGAGAUCCUAGAAACCAUCTT against Pex6, the z-score was inactive: 1.71. For the sequence GCCUUCAAAUGAAGGAAGGTT against Olfr699, the z-score was inactive: 0.0289. Consider GCCUGCAUUAGGAACCAAATT against Galnt9, for which the z-score is inactive: 0.222.

On to GGACCAAGUGGAAGAAGCATT against Nkx1-2, for which the z-score was active: -2.02.

Consider GGACUAGCAUUCAUGUUCCTT against Zfy2, for which the z-score is inactive: 0.618. Regarding GGUCUGAAAAAAGUAUCUUTT against Zfp943, the z-score was inactive: -1.07. GGCGGAUUCAACAGACCUCTT against Snrnp27: the z-score is inactive: -0.01. With GCAACGGACCUUUAAAAAATT against Mex3d, the z-score was inactive: -0.681. Take GCUUGUGAGUCUUUUCCUATT against Nfxl1: the z-score is inactive: 0.571. GCCCUCAUCAGAAGAAACUTT against Cox7b2: the z-score is inactive: 0.864. The same measure for CCAUAGCACUAAAUCAGAUTT against Nipbl: inactive: -1.3; for GGUCCAGAUUUACAACCCATT against St3gal2: inactive: -0.81. Regarding UUGGGAUGGGUCAUGCCUUTT against Gm10319, the z-score was inactive: 0.484. For CGUUGCUGGUCCAACAGAATT against Vtcn1, the z-score was inactive: -0.252.

Regarding GCUAUCACAAUAAAGGAUATT against Syt14, the z-score is inactive: -0.2. As for “GGAACUUUUCCUGGCCUCGTT against 9530080O11Rik”, the z-score was inactive: 1.79. For the sequence GGACGUGGUUGUUACCUCCTT against Stfa2l1, the z-score is inactive: -0.226. As for GGAAGUAUCGAGAUUCAUGTT against Pitpnm3, the z-score is inactive: 0.0165. Consider GGCAUUGCUUUGCUGGUCUTT against Atp5md, for which the z-score is inactive: 0.97. GGAAGUGAGAGUUAAGGCCTT against Rhov: the z-score was inactive: 0.748. The same measure for CAGUCGAAUUUCAGUCACATT against Olfr417: inactive: -0.111; for GGCUGAACUCAAAAAGACGTT against Hand1: inactive: 1.69.

For the sequence AGAUUUUGGGAAUAUAGUGTT against Klra16, the z-score is inactive: 0.098. The same measure for CGAACUGGCUGAGAUCAUCTT against Mrps17: inactive: -1.56. For the sequence GGGAAGAAGAUGGAAUUUATT against Smoc1, the z-score was inactive: 1.22.
